In the supplement of paper PMC10849652 one finds log2 fold change data, which are given here for 23 compounds.

The chains behind the UniProt entries cited, without tags or fusion partners. Where a name states a change or a piece, a line headed by the entry shows the natural chain unless it says otherwise.
UniProt Q9H900: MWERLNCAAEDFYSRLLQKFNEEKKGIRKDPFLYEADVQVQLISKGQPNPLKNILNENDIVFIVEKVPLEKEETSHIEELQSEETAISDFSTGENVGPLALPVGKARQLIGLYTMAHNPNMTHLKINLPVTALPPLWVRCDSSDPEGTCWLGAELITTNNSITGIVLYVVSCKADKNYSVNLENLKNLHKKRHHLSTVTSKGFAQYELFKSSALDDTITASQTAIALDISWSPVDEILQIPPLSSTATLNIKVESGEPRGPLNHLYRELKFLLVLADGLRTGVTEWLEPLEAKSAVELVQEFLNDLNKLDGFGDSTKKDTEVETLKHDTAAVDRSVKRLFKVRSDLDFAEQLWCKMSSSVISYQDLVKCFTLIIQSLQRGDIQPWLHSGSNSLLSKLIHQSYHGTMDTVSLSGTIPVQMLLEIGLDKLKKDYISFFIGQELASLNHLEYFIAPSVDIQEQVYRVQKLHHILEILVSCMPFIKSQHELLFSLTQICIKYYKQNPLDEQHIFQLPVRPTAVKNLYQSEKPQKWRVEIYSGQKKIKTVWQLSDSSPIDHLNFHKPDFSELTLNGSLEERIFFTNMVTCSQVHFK
UniProt O95229: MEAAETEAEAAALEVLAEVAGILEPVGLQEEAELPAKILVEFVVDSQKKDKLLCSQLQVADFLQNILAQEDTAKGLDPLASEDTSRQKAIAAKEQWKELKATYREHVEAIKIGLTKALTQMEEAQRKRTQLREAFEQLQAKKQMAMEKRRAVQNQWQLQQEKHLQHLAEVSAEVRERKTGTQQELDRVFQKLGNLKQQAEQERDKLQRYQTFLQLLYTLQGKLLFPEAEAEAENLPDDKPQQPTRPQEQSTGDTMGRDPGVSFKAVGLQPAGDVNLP
UniProt Q9C0D3: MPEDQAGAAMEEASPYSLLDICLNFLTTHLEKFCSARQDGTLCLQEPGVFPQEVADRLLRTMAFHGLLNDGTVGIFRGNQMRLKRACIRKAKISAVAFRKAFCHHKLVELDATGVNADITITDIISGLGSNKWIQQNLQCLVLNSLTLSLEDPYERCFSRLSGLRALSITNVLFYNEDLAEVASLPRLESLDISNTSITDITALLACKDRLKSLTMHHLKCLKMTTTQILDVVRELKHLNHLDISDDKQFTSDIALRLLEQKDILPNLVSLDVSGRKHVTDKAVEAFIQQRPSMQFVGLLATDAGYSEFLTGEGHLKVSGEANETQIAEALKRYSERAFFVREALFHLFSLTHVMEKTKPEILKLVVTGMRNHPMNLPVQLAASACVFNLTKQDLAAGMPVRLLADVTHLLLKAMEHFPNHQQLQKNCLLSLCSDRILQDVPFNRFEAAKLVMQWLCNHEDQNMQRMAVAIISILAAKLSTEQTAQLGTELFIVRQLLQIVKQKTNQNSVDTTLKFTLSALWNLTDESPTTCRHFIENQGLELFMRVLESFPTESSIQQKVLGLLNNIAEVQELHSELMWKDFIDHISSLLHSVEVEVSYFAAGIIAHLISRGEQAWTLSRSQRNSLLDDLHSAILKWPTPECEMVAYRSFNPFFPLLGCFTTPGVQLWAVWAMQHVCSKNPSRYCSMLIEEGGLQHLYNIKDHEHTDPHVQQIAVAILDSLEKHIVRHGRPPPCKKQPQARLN
UniProt Q15942: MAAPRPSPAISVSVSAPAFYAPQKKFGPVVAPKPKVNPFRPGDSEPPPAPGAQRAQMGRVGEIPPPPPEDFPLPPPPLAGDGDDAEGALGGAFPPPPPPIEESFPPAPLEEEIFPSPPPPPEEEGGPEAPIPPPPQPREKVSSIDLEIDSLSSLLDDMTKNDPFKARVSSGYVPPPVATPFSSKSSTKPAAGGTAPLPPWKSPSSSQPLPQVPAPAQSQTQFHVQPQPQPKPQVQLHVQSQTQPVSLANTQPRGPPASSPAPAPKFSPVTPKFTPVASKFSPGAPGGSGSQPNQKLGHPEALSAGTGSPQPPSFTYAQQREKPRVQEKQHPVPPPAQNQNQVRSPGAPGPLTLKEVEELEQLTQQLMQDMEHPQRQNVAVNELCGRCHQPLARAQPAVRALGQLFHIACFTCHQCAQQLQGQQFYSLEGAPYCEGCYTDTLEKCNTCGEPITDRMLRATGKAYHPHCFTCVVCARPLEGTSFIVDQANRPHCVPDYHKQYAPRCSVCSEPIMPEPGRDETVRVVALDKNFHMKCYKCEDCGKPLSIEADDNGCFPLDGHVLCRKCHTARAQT
UniProt O43149: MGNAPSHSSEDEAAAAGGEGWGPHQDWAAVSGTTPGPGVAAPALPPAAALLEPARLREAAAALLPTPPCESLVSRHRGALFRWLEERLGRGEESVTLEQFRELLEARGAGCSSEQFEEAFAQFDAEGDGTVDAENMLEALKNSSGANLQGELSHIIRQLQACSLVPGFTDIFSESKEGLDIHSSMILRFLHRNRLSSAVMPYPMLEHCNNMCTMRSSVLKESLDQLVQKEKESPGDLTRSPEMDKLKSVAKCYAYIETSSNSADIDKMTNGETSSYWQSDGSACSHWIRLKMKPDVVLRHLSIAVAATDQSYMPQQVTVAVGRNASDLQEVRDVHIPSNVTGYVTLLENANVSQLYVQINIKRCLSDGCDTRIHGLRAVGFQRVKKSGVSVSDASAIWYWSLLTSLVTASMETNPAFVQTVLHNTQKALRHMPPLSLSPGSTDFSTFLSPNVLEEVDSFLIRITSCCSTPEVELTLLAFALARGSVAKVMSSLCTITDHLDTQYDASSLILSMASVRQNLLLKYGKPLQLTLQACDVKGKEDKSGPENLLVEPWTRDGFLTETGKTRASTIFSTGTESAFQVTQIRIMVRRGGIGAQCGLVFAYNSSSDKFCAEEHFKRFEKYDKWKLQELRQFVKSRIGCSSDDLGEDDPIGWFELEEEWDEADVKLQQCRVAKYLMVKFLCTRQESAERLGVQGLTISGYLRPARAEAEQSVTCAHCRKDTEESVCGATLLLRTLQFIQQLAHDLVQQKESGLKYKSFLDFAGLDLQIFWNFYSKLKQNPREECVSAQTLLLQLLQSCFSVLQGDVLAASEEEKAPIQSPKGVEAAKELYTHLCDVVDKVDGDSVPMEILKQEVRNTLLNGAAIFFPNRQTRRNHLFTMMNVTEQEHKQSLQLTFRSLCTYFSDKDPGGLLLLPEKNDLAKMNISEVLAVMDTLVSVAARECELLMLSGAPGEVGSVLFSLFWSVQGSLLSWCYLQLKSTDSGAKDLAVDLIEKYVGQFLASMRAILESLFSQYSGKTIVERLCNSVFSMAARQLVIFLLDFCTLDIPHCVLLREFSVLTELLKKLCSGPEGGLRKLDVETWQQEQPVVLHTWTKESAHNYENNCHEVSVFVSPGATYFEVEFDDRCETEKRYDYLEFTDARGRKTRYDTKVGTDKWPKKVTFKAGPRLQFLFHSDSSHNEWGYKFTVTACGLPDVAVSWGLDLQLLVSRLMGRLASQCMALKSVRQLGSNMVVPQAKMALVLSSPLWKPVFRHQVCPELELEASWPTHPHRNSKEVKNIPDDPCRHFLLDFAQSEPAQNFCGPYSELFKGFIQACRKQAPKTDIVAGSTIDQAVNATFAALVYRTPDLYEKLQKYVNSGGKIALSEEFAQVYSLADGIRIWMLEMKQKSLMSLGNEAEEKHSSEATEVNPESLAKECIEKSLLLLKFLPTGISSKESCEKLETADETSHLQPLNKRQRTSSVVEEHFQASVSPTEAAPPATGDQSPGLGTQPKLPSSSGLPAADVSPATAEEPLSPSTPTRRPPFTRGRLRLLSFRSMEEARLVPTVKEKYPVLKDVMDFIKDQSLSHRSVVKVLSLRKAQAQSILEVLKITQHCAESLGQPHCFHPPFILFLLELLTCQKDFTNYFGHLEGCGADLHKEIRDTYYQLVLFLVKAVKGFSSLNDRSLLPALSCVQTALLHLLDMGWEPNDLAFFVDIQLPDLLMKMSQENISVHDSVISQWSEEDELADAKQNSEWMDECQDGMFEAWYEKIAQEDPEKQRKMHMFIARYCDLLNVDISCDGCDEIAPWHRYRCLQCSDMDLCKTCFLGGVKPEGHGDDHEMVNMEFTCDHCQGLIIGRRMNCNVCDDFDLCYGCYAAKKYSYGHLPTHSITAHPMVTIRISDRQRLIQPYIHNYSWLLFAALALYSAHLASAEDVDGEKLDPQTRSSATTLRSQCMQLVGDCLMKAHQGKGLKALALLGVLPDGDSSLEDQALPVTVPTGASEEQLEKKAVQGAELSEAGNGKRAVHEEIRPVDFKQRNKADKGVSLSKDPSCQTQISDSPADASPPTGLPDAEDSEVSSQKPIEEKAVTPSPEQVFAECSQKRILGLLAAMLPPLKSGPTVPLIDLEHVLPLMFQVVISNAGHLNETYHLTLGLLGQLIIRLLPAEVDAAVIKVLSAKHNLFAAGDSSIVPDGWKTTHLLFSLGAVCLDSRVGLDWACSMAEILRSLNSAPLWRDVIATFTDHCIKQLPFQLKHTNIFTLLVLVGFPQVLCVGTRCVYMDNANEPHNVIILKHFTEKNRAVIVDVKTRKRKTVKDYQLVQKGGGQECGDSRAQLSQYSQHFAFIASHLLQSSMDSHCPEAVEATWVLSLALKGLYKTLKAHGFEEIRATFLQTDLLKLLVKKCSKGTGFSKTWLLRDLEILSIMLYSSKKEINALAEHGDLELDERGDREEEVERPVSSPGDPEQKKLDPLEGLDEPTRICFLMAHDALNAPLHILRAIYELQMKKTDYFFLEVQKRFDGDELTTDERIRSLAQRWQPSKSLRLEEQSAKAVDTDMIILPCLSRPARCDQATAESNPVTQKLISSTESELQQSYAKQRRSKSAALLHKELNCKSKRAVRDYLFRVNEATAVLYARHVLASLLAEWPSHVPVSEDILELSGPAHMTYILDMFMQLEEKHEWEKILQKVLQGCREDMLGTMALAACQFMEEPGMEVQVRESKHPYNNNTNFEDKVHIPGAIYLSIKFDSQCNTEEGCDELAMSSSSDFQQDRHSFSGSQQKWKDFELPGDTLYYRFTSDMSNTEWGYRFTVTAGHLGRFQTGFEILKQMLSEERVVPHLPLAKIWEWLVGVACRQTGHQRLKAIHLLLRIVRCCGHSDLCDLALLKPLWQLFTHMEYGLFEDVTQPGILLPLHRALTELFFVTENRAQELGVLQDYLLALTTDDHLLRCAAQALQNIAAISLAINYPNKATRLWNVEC
UniProt Q8IYH5: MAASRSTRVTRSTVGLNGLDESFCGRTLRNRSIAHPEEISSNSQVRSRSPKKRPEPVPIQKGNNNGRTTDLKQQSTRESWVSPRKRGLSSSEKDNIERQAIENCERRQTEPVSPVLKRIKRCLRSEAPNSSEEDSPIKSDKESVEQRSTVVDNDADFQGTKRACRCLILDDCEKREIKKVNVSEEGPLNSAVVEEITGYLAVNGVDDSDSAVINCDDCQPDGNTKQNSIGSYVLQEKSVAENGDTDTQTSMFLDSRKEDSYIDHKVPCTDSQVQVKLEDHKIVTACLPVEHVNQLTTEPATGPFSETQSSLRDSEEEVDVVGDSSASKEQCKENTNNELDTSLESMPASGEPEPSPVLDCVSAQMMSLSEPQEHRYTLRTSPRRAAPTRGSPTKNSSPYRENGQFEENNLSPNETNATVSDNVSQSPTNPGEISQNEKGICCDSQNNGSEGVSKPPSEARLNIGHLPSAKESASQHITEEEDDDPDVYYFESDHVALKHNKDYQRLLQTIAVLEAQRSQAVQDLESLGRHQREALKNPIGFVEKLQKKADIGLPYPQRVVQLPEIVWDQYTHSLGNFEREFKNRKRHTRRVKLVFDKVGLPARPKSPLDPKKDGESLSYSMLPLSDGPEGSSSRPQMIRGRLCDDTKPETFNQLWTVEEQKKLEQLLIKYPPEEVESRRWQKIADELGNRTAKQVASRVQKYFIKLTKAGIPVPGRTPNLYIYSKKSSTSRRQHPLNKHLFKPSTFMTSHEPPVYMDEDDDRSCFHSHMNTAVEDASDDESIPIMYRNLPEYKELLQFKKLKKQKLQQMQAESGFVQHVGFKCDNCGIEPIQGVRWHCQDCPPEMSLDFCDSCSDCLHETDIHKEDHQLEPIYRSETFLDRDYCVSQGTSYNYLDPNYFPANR

This is one part of the list.

Common to all, as to assay: log2 fold change, soluble protein after heating vs DMSO (PISA); higher = thermal stabilisation; K562 cells, 10 uM, 30 min; active = over 0.2 and 3.5 SD of the protein, either way, in both replicates (recomputed)
For assay [1], the target named is ZWILCH (UniProt Q9H900). The gist of the method: (§1)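 Soluble protein was defined as the supernatant after 21,000xg for 90 min. It came from K562 cells at 2×10^6 cells/mL given 10 μM compound for 30 min, heated in aliquots for 3 min across 48°C-58°C, pooled, and extracted in PBS with 0.5% NP-40 at 4°C, and was quantified by TMTpro 16plex LC-MS/MS with equalised channel sums. Thermal stability against control samples, from duplicates, is reported as log2 fold change.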

The target in assay [2] is ZWINT (UniProt O95229). The gist of the method:
as §1

The target of assay [3] is ZYG11B (UniProt Q9C0D3). The gist of the method:
as §1

The target of assay [4] is ZYX (UniProt Q15942). The gist of the method: as §1
The target of assay [5] is ZZEF1 (UniProt O43149). The gist of the method:
as §1

Assay [6] deals with ZZZ3 (UniProt Q8IYH5). The gist of the method: as §1

`CC(=O)c1cnc2ccc(-c3cc(Cl)c(O)c(Cl)c3)nc2c1N[C@H]1CC[C@H](CN(C)C)CC1`: the log2 fold change in assay [1] was inactive: 0.004; in assay [2], inactive: 0.084; in assay [3], inactive: 0.004; in assay [4], inactive: 0.037; in assay [5], inactive: 0.032; in assay [6] it was inactive: -0.035.

In the case of `Cn1cncc1[C@@](N)(c1ccc(Cl)cc1)c1ccc2c(c1)c(-c1cccc(Cl)c1)cc(=O)n2C` [tipifarnib], the log2 fold change in assay [1] is inactive: -0.01; in assay [2], inactive: 0.003; in assay [3], inactive: 0.089; in assay [4], inactive: -0.011; in assay [5], inactive: 0.041; in assay [6] it was inactive: -0.038.

Consider `CCCS(=O)(=O)Nc1ccc(F)c(C(=O)c2c[nH]c3ncc(Cl)cc23)c1F`, for which the log2 fold change in assay [1] was inactive: 0.016; in assay [2], inactive: 0.065; in assay [3], inactive: -0.043; in assay [4], inactive: 0.021; in assay [5], inactive: -0.014; in assay [6], inactive: 0.013.

On to `Cc1cc(Nc2cc(N3CCN(C)CC3)nc(Sc3ccc(NC(=O)C4CC4)cc3)n2)n[nH]1` [tozasertib], for which the log2 fold change in assay [2] is inactive: 0.064; in assay [4], inactive: 0.002; in assay [5], inactive: 0.027; in assay [6] it was inactive: -0.089.

With `C#Cc1cccc(Nc2ncnc3cc(OCCOC)c(OCCOC)cc23)c1` [erlotinib], the log2 fold change in assay [1] is inactive: 0.009; in assay [2], inactive: 0.027; in assay [3], inactive: -0.015; in assay [4], inactive: 0.047; in assay [5], inactive: -0.011; in assay [6] it was inactive: 0.024.

Take `CCN(CC)Cc1ccc2cc(COC(=O)Nc3ccc(C(=O)NO)cc3)ccc2c1` [givinostat]: the log2 fold change in assay [1] was inactive: 0.046; in assay [2] it was inactive: 0.032; in assay [3] it was inactive: -0.009; in assay [4], inactive: -0.013; in assay [5], inactive: 0.008; in assay [6] it was inactive: -0.007.

Regarding `NC(=O)c1ccc2nc(-c3ccc(Oc4ccc(Cl)cc4)cc3)[nH]c2c1`, the log2 fold change in assay [1] is inactive: -0.028; in assay [2] it was inactive: -0.017; in assay [3], inactive: 0; in assay [4] it was inactive: -0.003; in assay [5] it was inactive: -0.01; in assay [6] it was inactive: 0.085.

Regarding `Cc1ccc2c(=O)c3ccccc3n(CCCN)c2c1C`, the log2 fold change in assay [1] was inactive: 0.013; in assay [2] it was inactive: -0.167; in assay [3], inactive: 0.009; in assay [4], inactive: -0.037; in assay [5] it was inactive: -0.032; in assay [6] it was inactive: -0.03.

Consider `Cc1ccc(Sc2cncc3sc(C(N)=O)cc23)cc1`, for which the log2 fold change in assay [1] is inactive: -0.068; in assay [2] it was inactive: -0.03; in assay [3], inactive: -0.028; in assay [4] it was inactive: 0.051; in assay [5] it was inactive: -0.053; in assay [6] it was inactive: 0.016.

Consider `NC(=O)c1cnc(N[C@@H]2CCCC[C@@H]2N)nc1Nc1cccc(-n2nccn2)c1`, for which the log2 fold change was inactive: -0.085 in assay [1]; inactive: -0.086 in assay [2]; inactive: 0.022 in assay [3]; inactive: 0.019 in assay [4]; inactive: -0.045 in assay [5]; inactive: 0.132 in assay [6].

Consider `COc1cc(C(=O)O)ccc1NC(=O)[C@@H]1N[C@@H](CC(C)(C)C)[C@](C#N)(c2ccc(Cl)cc2F)[C@H]1c1cccc(Cl)c1F` [idasanutlin], for which the log2 fold change in assay [1] is inactive: -0.051; in assay [2], inactive: -0.028; in assay [3], inactive: 0.01; in assay [4], inactive: 0; in assay [5] it was inactive: -0.029; in assay [6] it was inactive: 0.028.

On to `CC[C@@H]1C(=O)N(C)c2cnc(Nc3ccc(C(=O)N[C@H]4CC[C@H](N5CCN(CC6CC6)CC5)CC4)cc3OC)nc2N1C(C)C` [volasertib], for which the log2 fold change in assay [1] is active: -0.266; in assay [2] it was inactive: -0.129; in assay [3], inactive: 0.002; in assay [4], inactive: 0.027; in assay [5] it was inactive: -0.038; in assay [6], inactive: -0.175.

For `c1cn2cc(-c3ccc4cn[nH]c4c3)nc(Nc3ccc(N4CCOCC4)cc3)c2n1` [entospletinib], the log2 fold change was inactive: -0.019 in assay [2], inactive: 0.056 in assay [4] and inactive: 0.029 in assay [5].

For `CCn1c(C(=O)N(C2CC2)C2CC2)cc2c3c(ncn3C)c(Nc3cc(C)n(C)n3)nc21`, the log2 fold change in assay [2] was inactive: 0.068; in assay [4], inactive: 0.013; in assay [5] it was inactive: 0.002; in assay [6], inactive: -0.048.

Consider `CC1=C(C(=O)Nc2cc3cn[nH]c3cc2F)C(c2ccc(C(F)(F)F)cc2)CC(=O)N1` (stereo not given), for which the log2 fold change is inactive: -0.054 in assay [2], inactive: 0.039 in assay [4] and inactive: -0.054 in assay [5].

For `CC(C)c1cnn2c(NCc3ccccc3)cc(NCCCCCCN)nc12`, the log2 fold change in assay [1] is inactive: -0.107; in assay [2], inactive: -0.081; in assay [3] it was inactive: 0.058; in assay [4], inactive: 0.03; in assay [5], inactive: -0.033; in assay [6] it was inactive: -0.016.

For `CN1CCc2c(c3ccccc3n2Cc2ccc(C(=O)NO)cc2)C1` [Tubastatin A], the log2 fold change was inactive: -0.028 in assay [1]; inactive: 0.1 in assay [2]; inactive: 0.04 in assay [3]; inactive: -0.015 in assay [4]; inactive: 0.004 in assay [5]; inactive: -0.01 in assay [6].

Turning to `NC(=O)Nc1cc(-c2cccc(F)c2)sc1C(=O)N[C@H]1CCCNC1`, the log2 fold change in assay [1] is inactive: 0; in assay [2] it was inactive: 0.034; in assay [3] it was inactive: -0.033; in assay [4] it was inactive: 0.006; in assay [5], inactive: 0.001.

`O=C(Nc1cccc(Nc2ncc(Br)c(NCCc3cnc[nH]3)n2)c1)N1CCCC1`: the log2 fold change is inactive: 0.029 in assay [1]; inactive: 0.045 in assay [2]; inactive: -0.026 in assay [3]; inactive: 0.025 in assay [4]; inactive: 0.024 in assay [5]; inactive: 0.051 in assay [6].

In the case of `CS(=O)(=O)CCNCc1ccc(-c2ccc3ncnc(Nc4ccc(OCc5cccc(F)c5)c(Cl)c4)c3c2)o1` [lapatinib], the log2 fold change in assay [1] was inactive: 0.018; in assay [2] it was inactive: 0.021; in assay [3] it was inactive: -0.05; in assay [4] it was inactive: -0.035; in assay [5], inactive: -0.008; in assay [6], inactive: 0.021.

On to `CN1CC[C@H](c2c(O)cc(O)c3c(=O)cc(-c4ccccc4Cl)oc23)[C@H](O)C1` [alvocidib], for which the results for the log2 fold change in assay [2], in assay [4] and in assay [5] were inactive: -0.022, inactive: 0.058 and inactive: -0.009, respectively.

On to `CN(CCOc1ccc(C[C@@H]2SC(=O)NC2=O)cc1)c1ccccn1` (racemic) [rosiglitazone], for which the log2 fold change in assay [2] was inactive: 0.026; in assay [4], inactive: 0.002; in assay [5], inactive: 0.095.

Regarding `Cc1ccc(-n2nc(C(C)(C)C)cc2NC(=O)Nc2ccc(OCCN3CCOCC3)c3ccccc23)cc1` [doramapimod], the log2 fold change is inactive: -0.002 in assay [1]; inactive: 0.006 in assay [2]; inactive: 0.036 in assay [3]; inactive: -0.049 in assay [4]; inactive: 0.047 in assay [5].
